Literature values, collected in patent US20050143350A1, “Combination drug therapy to treat obesity” (priority 2003, published 2005).
Some entries share one result that the patent states for a list of compounds. Some ranges recur; such a range may be that of the whole group of compounds.

conditions: carbamoylating agents; cited from earlier work

| SMILES | half-life |
| --- | --- |
| CNC(=O)Oc1ccc2c(c1)[C@]1(C)CCN(C)[C@@H]1N2C [physostigmine] | 1 to 2 h |
| CN(C)C(=O)Oc1cccc([N+](C)(C)C)c1 [neostigmine] | 1 to 2 h |
| CN(C)C(=O)Oc1ccc[n+](C)c1 [pyridostigmine] | 1 to 2 h |
